Some of the results follow.

By UniProt entry, the sequences of proteins in these tests, tags left out.
UniProt P63279, whole entry: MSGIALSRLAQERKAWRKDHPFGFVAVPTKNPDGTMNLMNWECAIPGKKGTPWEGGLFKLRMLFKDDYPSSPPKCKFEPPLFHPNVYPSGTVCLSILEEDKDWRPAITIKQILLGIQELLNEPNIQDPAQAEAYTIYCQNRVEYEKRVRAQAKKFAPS

For orientation: inhibition means how much of the control response was suppressed.

For the experiment, the target named is SUMO-conjugating enzyme UBC9 (Homo sapiens) (UniProt P63279). Kind of experiment: blockers of SAE1/SAE2–UBC9 SUMO transfer – biochemical, HTRF, uHTS, primary screen (AID 2006). The note with it: HTRF SUMOylation assay, SAE1/SAE2 + UBC9, in vitro; average of repeat tests; at 35 µM; stronger effect = higher value. A general note: Time-resolved FRET reads energy transfer from a long-lived donor to a nearby acceptor.
Turning to `Nc1cccc2ccc([As](=O)(O)O)cc12`, the inhibition amounted to 53.8%.

On to `Nc1cccc2c([As](=O)(O)O)cccc12`, for which the inhibition was found to be 39.9%.

For the origin of these results see PubChem BioAssay AID2006 (Sanford-Burnham Center for Chemical Genomics, 2009).
